# Where two headings read alike, the source gives them in different places.
# Columns and labels:
# Histoplasma capsulatum = settings: TREATED ANIMALS
# [1] = system: copper sulfate intoxication
# Mycoplasma pneumoniae = settings: 0.1 ml 0.2% i.p. twice a day 4 days, then 0.2 ml 0.2% once a day; 10 days after beginning of infection
# [2] = cited from earlier work
# M3 tumor = test: M3 transplanted mice, tumor area (lidocaine and epidoxorrubicine); assay type: in vivo
# [3] = system: M3 mammary adenocarcinoma
smiles,measurement,setting,value
CCN(CC)CC(=O)Nc1c(C)cccc1C [lidocaine],"Lesions, kidney",Histoplasma capsulatum; Day 5 pi,no lesions
same,"Lesions, liver",Histoplasma capsulatum; Day 5 pi,small amount of necrosis
same,"Lesions, lung",Histoplasma capsulatum; Day 5 pi,no lesions
same,"Lesions, pancreas",Histoplasma capsulatum; Day 5 pi,no lesions
same,"Lesions, spleen",Histoplasma capsulatum; Day 5 pi,no lesions
same,"Lesions, kidney",Histoplasma capsulatum; Day 10 pi,no lesions
same,"Lesions, liver",Histoplasma capsulatum; Day 10 pi,small amount of necrosis
same,"Lesions, lung",Histoplasma capsulatum; Day 10 pi,no lesions
same,"Lesions, pancreas",Histoplasma capsulatum; Day 10 pi,no lesions
same,"Lesions, spleen",Histoplasma capsulatum; Day 10 pi,small amount granulomas
same,"Lesions, kidney",Histoplasma capsulatum; Day 15 pi,no lesions
same,"Lesions, liver",Histoplasma capsulatum; Day 15 pi,small amount of granulomas
same,"Lesions, lung",Histoplasma capsulatum; Day 15 pi,granulomas
same,"Lesions, pancreas",Histoplasma capsulatum; Day 15 pi,no lesions
same,"Lesions, spleen",Histoplasma capsulatum; Day 15 pi,small amount granuloma
same,Microscopic examination,[1]; Group A (0.05 ml lidocaine),Only minor balloonization of hepatocytes
same,Microscopic examination,[1]; Group B (0.1 ml lidocaine),No alterations were found
same,Microscopic examination,[1]; Group C (0.2 ml lidocaine),No alterations were found
same,Coloration of skin and mucosa,[1]; group C (0.2 ml lidocaine oral),no bluish coloration
same,Coloration of skin and mucosa,[1]; groups A and B (0.05 and 0.1 ml lidocaine oral),presented a bluish coloration of skin and mucosa
same,Mortality,"[1]; groups A, B, C: 20mg CuSO₄ i.p. + 0.05, 0.1 or 0.2 ml lidocaine oral twice a day 2 days, all untreated died from 48 hours",No mortality was found
same,Lung microscopic examination,Mycoplasma pneumoniae,scarce pneumonic foci
same,therapeutic plasma level,[2]; in vivo,0.2-0.5 mg/100 ml
same,toxic level (plasma),[2]; in vivo,0.7-0.9 mg/100 ml
same,duration of adequate plasma levels,[2]; intramuscular route,≥ 2 h
same,time to adequate plasma levels,[2]; intramuscular route,30 min
same,intact drug excreted in urine,[2]; urine,5-10%
same,Area (tumor),"M3 tumor; day 10 p-t, regimens as Table 5 footnotes, saline control 0.92",0.55
same,I/Ø: Percentual increment over tumor in day 0 (day 7 p-t),"M3 tumor; day 18 p-t, saline control 701.39",200.52%
same,I/Ø: Percentual increment over tumor in day 0 (day 7 p-t),"M3 tumor; day 21 p-t, saline control 923.86",320.31%
same,I/Ø: Percentual increment over tumor in day 0 (day 7 p-t),"M3 tumor; day 23 p-t, saline control 1119.69",530.47%
same,I/Ø: Percentual increment over tumor in day 0 (day 7 p-t),"[3]; Group A (single dose), day 9 p-t",10.93%
same,I/Ø: Percentual increment over tumor in day 0 (day 7 p-t),"[3]; Group A (single dose), day 13 p-t",10.38%
same,I/Ø: Percentual increment over tumor in day 0 (day 7 p-t),"[3]; Group A (single dose), day 15 p-t",23.50%
same,I/Ø: Percentual increment over tumor in day 0 (day 7 p-t),"[3]; Group A (single dose), day 17 p-t",93.99%
same,I/Ø: Percentual increment over tumor in day 0 (day 7 p-t),"[3]; Group A (single dose), day 20 p-t",206.01%
same,I/Ø: Percentual increment over tumor in day 0 (day 7 p-t),"[3]; Group A (single dose), day 22 p-t",304.37%
same,I/Ø: Percentual increment over tumor in day 0 (day 7 p-t),"[3]; Group A (single dose), day 24 p-t",554.64%
same,Area (tumor),"[3]; Group A, 0.1 ml 0.05% lidocaine i.p. once on day 8, day 7 p-t (before treatment)",0.37 cm²
same,Area (tumor),"[3]; Group A, 0.1 ml 0.05% lidocaine i.p. once on day 8, day 9 p-t",0.41 cm²
same,Area (tumor),"[3]; Group A, 0.1 ml 0.05% lidocaine i.p. once on day 8, day 13 p-t",0.40 cm²
same,Area (tumor),"[3]; Group A, 0.1 ml 0.05% lidocaine i.p. once on day 8, day 15 p-t",0.45 cm²
same,Area (tumor),"[3]; Group A, 0.1 ml 0.05% lidocaine i.p. once on day 8, day 17 p-t",0.71 cm²
same,Area (tumor),"[3]; Group A, 0.1 ml 0.05% lidocaine i.p. once on day 8, day 20 p-t",1.12 cm²
same,Area (tumor),"[3]; Group A, 0.1 ml 0.05% lidocaine i.p. once on day 8, day 22 p-t",1.48 cm²
same,Area (tumor),"[3]; Group A, 0.1 ml 0.05% lidocaine i.p. once on day 8, day 24 p-t",2.40 cm²
same,I/Ø: Percentual increment over tumor in day 0 (day 7 p-t),"[3]; Group B (every 3 days), day 9 p-t",4.76%
same,I/Ø: Percentual increment over tumor in day 0 (day 7 p-t),"[3]; Group B (every 3 days), day 13 p-t",4.17%
same,I/Ø: Percentual increment over tumor in day 0 (day 7 p-t),"[3]; Group B (every 3 days), day 15 p-t",62.50%
same,I/Ø: Percentual increment over tumor in day 0 (day 7 p-t),"[3]; Group B (every 3 days), day 17 p-t",169.64%
same,I/Ø: Percentual increment over tumor in day 0 (day 7 p-t),"[3]; Group B (every 3 days), day 20 p-t",289.88%
same,I/Ø: Percentual increment over tumor in day 0 (day 7 p-t),"[3]; Group B (every 3 days), day 22 p-t",434.52%
same,I/Ø: Percentual increment over tumor in day 0 (day 7 p-t),"[3]; Group B (every 3 days), day 24 p-t",559.52%
same,Area (tumor),"[3]; Group B, 0.1 ml 0.05% lidocaine i.p. every 3 days from day 8, day 7 p-t (before treatment)",0.34 cm²
same,Area (tumor),"[3]; Group B, 0.1 ml 0.05% lidocaine i.p. every 3 days, day 9 p-t",0.35 cm²
same,Area (tumor),"[3]; Group B, 0.1 ml 0.05% lidocaine i.p. every 3 days, day 13 p-t",0.35 cm²
same,Area (tumor),"[3]; Group B, 0.1 ml 0.05% lidocaine i.p. every 3 days, day 15 p-t",0.55 cm²
same,Area (tumor),"[3]; Group B, 0.1 ml 0.05% lidocaine i.p. every 3 days, day 17 p-t",0.91 cm²
same,Area (tumor),"[3]; Group B, 0.1 ml 0.05% lidocaine i.p. every 3 days, day 20 p-t",1.31 cm²
same,Area (tumor),"[3]; Group B, 0.1 ml 0.05% lidocaine i.p. every 3 days, day 22 p-t",1.80 cm²
same,Area (tumor),"[3]; Group B, 0.1 ml 0.05% lidocaine i.p. every 3 days, day 24 p-t",2.22 cm²
same,Tumor growth compared with 0.05% lidocaine,[3]; tumors treated with 0.005% and 0.001% lidocaine,quite similar
